These are yes or no findings as the source states them, for the method shown. In cells and extracts the contact can be indirect. These calls come from enrichment with a bait or labelling near it, and not all partners need be listed. Tags and fused reporters may be left off the sequences shown.
T1: γ2-COP-ultraID (γ2-COP subunit of coatomer with ultraID fused to its C-terminus) (UniProt Q9QXK3)
T1 sequence: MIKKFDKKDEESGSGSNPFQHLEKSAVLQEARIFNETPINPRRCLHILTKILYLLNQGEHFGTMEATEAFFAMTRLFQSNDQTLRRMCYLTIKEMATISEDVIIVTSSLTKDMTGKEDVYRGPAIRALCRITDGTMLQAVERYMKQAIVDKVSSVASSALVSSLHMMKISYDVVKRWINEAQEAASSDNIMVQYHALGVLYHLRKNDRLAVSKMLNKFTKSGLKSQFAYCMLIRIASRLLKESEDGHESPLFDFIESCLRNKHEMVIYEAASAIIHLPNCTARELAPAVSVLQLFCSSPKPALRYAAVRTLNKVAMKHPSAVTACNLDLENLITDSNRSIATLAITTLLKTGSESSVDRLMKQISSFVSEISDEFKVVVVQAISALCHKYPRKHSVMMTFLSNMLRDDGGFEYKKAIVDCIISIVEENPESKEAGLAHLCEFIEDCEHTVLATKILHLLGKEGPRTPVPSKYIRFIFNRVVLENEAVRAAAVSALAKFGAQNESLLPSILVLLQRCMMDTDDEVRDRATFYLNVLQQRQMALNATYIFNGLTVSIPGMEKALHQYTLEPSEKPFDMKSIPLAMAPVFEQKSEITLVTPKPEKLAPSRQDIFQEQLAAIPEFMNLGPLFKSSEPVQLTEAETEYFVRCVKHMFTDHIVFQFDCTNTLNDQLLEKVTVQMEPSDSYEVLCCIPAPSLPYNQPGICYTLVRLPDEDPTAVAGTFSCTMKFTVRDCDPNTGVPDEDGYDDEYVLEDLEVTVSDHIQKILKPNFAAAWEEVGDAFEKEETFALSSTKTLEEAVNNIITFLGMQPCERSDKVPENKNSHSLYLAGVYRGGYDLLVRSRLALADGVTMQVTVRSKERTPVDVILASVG

T2: γ1-COP-ultraID (γ1-COP subunit of coatomer with ultraID fused to its C-terminus) (UniProt Q9QZE5)
T2 sequence: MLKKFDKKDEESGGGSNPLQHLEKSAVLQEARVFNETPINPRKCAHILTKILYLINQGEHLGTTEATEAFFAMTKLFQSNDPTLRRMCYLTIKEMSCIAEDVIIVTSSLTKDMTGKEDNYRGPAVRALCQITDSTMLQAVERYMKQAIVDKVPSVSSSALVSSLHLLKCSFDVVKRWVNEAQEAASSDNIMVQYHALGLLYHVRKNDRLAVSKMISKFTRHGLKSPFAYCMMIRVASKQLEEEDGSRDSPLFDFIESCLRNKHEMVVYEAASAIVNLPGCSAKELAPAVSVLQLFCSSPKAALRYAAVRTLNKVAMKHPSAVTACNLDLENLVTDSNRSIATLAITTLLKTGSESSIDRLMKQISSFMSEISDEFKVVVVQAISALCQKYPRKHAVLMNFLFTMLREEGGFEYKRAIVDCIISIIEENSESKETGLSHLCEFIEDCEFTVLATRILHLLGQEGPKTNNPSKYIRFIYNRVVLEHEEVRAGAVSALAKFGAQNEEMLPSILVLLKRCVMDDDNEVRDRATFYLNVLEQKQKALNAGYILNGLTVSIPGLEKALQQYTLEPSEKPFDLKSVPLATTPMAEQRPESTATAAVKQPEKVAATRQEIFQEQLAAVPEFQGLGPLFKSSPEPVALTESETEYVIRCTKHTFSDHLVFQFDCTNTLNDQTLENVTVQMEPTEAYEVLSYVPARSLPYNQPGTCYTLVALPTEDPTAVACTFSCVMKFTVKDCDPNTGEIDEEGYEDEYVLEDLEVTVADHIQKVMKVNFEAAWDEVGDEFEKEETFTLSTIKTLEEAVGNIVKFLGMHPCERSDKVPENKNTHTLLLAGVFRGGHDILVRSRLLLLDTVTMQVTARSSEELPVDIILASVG

B1: GCC88 (protein, UniProt Q9D4H2 1-778)
chain: MEKFGMNFGGGPSKKDLLETIETQKKQLLQYQARLKDVVRAYKSLLKEKEALEASIKVLSVSHEADVGLSGVQPPGLTFPDSVDDRCSTHSEDSTGTATSLDTAASLTSVKGEFGVEDDRAARGPLPPKSEEASGSESGVSSSSGDGPSAGSEMDKRVHQLKTQLATLTSSLATVTQEKSRMEASYLADKKKMKQDLEDANKKAEEERGRLEGDLKVLQEQIAETKARLITQQHDRAQEQSDHALMLRELQKLLQEERTQRQDLELRLEETREALAGRAYAADQVEGFELQTKQLTREVEELKGELQTIRDEKNRPDPRLQELQQEAARLKSHFQAQLQQEMRKTALAEDQLRQQSQVEEQRVAALESQISEVSELLGTYEKAKQKDQLAIQKLKERLLQLDLENKTLALAASSRSSLDIHGDESSLDINVLKDKMEKLKKLLQVAARKSQVTLDVEKLCDPEIMANSEAADGEKATALYYQQELKQLKEEFERYKMRAQVVLKSKNTKDGSLGKELEAAQEQLAELKDKYISLRLSCEELESQHQQEAEDWKQELARLQQLHRQELERSQLDFRDRTLKLEEELHKQRDRALAVLAEKDLELEQLRSVALSSGLPGRRSPVGGVGGGGLGDPADTASSDSLTQALQLAAANEPTFFLYAEQLARKEVEITSLRKQKHRLEVEAHQLQERLLEEGERHREEVGALQSHIEKNMRDQSREGANLEYLKNIIYRFLTLPDSLGRQQTLTAILTILHFSPEEKQVLMRLPSGGSWWPSGKR
B2: TMF (protein, UniProt B9EKI3 1-1091)
chain: MSWFNASQLSSFAKQALSQAQKSIDRVLDIQEEEPSAWAEAIPYGEPGISPPVSGGWDTSTWGLNSTSSEPQSPPTASQAITKPVRRTVVDESENFFSAFLSPSDAHTIQKSPVVSKPPSKSQRPEEEVKSSLQESSSPGQSRVSETAEVRDSVCVSGETSAVGTPSPVPEDKHEETAGEESEVKVPTVRLKASENVVNVNTTEDVSTTSTQSLTAETKDMALEPKEQKHEDRQSNTPSPPVSSFSSGTSTTSDIEVLDHESVISESSASSRQETSDAKSSLHLMQTSFQLLSASACPEYSRLDDFQKLNESCCSSDAFERIDSFSVQSLDSRSVSEINSDDELPGKGYALVPIIVSPSTPKTKVVESTEENAEEEEGNETLVAPSEEAELEESGRSATPVNCDQPDILASPTAGSGGHSASGPATEQCEAVENQPKAPPEKEDVCKTVEFLNEKLEKRETQLLSLSKEKALLEEAYDNLKDEMFRVKEESSSISSLKDEFTQRIAEAEKKVQLACKERDAAKKEMKTIKEELATRLNSSQTADLLKEKDEQIQGLMEEGEKLSKQQLHNSNIIKKLRAKDKDNENVIAKLNRKAKELEEELQHLRQVLDGKEEVEKQHRENIKKLNSVVERQEKDLGRLQVDMDELEEKSRSTQAALDSAYRELTDLHKANAAKDSEVQEAALRREMKAKEELSGALEKAQEEARQQQEALVLQVGDLRLALQRAEQAAARKEDYLRHEISELQQRLQEAENRNQELSQSVSSTARPLLRQIENLQATLGSQTSSWETLEKSLSDRLGESQTLLAAAVERERAATEELLANKIQMSSVESQNTLLRQENSRLQAQLESEKNKLRKLEDENSRYQVELENLKDEYVRTLEESRKEKTLLSSQLEMERMKVEQERKKTIFTQEALKEKDHKLFSVCSTPTMSRSSSISGVDAAGLQASFLSQDESHDHSFGPMSTSASGSNLYEAVRMGAGSSIIENLQSQLKLREGEISHLQLEISNLEKTRSIMSEELVKLTNQNDELEEKVKEIPKLRVQLRDLDQRYNTILQMYGEKAEEAEELRLDLEDVKNMYKTQIDELLRQRLS
B3: Scyl1 (protein, UniProt Q9EQC5 1-806)
chain: MWFFARDPVRDFPFELSPEPPEGGPPGPWILHRGRKKATGSAVSIFVYDVKPGAEEQTQVAKAAFKRLKTLRHPNILAYIDGLETEKCLHIVTEAVTPLGTYLKARAEAGGLKEQELSWGLHQIVKALSFLVNDCNLIHNNVCMAAVFVDRAGEWKLGGLDYMYSAQGNGGGPPSKGIPELEQYDPPELADSSSRAVREKWSADMWRLGCLIWEVFNGSLPRAAALRNPGKIPKSLVTHYCELVGANPKVRPNPARFLQNCRAPGGFMSNRFVETNLFLEEIQIKEPAEKQKFFQELSKSLDSFPEDFCRHKVLPQLLTAFEFGNAGAVVLTPLFKVGKSLRAEEYQEKIIPVVVKMFSSTDRAMRIRLLQQMEQFIQYLDEPTVNTQIFPHVTHGFLDTNPAIREQTVKSMLLLAPKLNEANLNVELMKHFARLQAKDDQGPIRCNTTVCLGKIGSYLSASTRHRVLTSAFSRATKDPFAPSRVAGVLGFAATHNLYSMDDCAHKILPVLCGLTVDPEKSVRDQAFKTIRSFLSKLESVSEDPTQLAEVEKDVHAASSPGTGGAAASWAGWAVTGVSSLTSKLIRAHPTPVPSDTTVPQRPVPEGNPAPAPALAQAIPATSGHWETQEDKDTAEDSATADRWDDEDWGSLEQEAESVLAQQDDWSAKGQGSRAGQINHPDHKSLESHWSSWEVEGSWDQGWQEPSSVEPPPEGTRLASEYNWGGAEPSDKGDPFAALSVRPSAQPRPDPDSWGEDNWEGLEAESRQVKAELARKKREERRREMEAKRAEKKTTKGPMKLGARKLD

target: T1, γ2-COP-ultraID (γ2-COP subunit of coatomer with ultraID fused to its C-terminus); assay: proximity labelling

binding | Binder
binds | B1
binds | B2
binds | B3

target: T2, γ1-COP-ultraID (γ1-COP subunit of coatomer with ultraID fused to its C-terminus); assay: proximity labelling

binding | Binder
binds | B1
binds | B2
binds | B3
